Results published in patent US7384464B2, “Ink jet and recording material” (Ciba Specialty Chemicals Corporation, priority 2004, dated 2008).

Columns and labels:
[1] = Light fastness of ink jet prints on stabilizer-treated paper, 100% print density, office fluorescent lighting (Example 5); details: 650-700 mg/m^2 stabilizer
[2] = Light fastness of magenta ink jet prints on stabilizer-treated paper, 100% print density, office fluorescent lighting (Example 6); details: 650-700 mg/m^2 stabilizer
[3] = Light fastness of ink jet prints on stabilizer-treated paper, 50% print density, office fluorescent lighting (Example 7); details: 650-700 mg/m^2 stabilizer
[4] = Dark storage of yellow ink jet prints on stabilizer-treated paper (Example 8); details: 100% print density; dark storage in a file folder in a desk drawer

CC(C)(O)CON1C(C)(C)CC(O)CC1(C)C [Instant Example 2, bis(1-(2-hydroxy-2-methylpropoxy)-2,2,6,6-tetramethyl-4-hydroxypiperidinium)citrate]
DE for cyan after 4 weeks [1]: 4.43 | DE for yellow after 4 weeks [1]: 3.77 | DE for magenta after 4 weeks [2]: 15.60 | DE for cyan after 4 weeks [3]: 5.32 | DE for magenta after 4 weeks [3]: 14.04 | DE for yellow after 4 weeks [3]: 1.73 | DE for yellow after 4 weeks [4]: 0.12

CC(C)(O)CON1C(C)(C)CC(O)CC1(C)C [Instant Example 4, 1-(2-hydroxy-2-methylpropoxy)-2,2,6,6-tetramethyl-4-hydroxypiperidinium ascorbate]
DE for magenta after 4 weeks [2]: 15.62 | DE for cyan after 4 weeks [3]: 5.43 | DE for magenta after 4 weeks [3]: 12.89 | DE for yellow after 4 weeks [3]: 3.18

1-(2-hydroxy-2-methylpropoxy)-2,2,6,6-tetramethyl-4-hydroxypiperidinium citrate [Instant Example 3]
DE for magenta after 4 weeks [2]: 15.36 | DE for cyan after 4 weeks [3]: 6.03 | DE for magenta after 4 weeks [3]: 14.10 | DE for yellow after 4 weeks [3]: 1.97

1-hydroxy-2,2,6,6-tetramethyl-4-hydroxypiperidinium citrate [Compound A, reference compound]
DE for cyan after 4 weeks [1]: 4.85 | DE for yellow after 4 weeks [1]: 3.80

CC(C)(O)CON1C(C)(C)CC(O)CC1(C)C [Instant Example 1, tris(1-(2-hydroxy-2-methylpropoxy)-2,2,6,6-tetramethyl-4-hydroxypiperidinium)citrate]
DE for cyan after 4 weeks [1]: 4.75 | DE for yellow after 4 weeks [1]: 2.83 | DE for magenta after 4 weeks [2]: 18.17 | DE for cyan after 4 weeks [3]: 5.80 | DE for magenta after 4 weeks [3]: 13.53 | DE for yellow after 4 weeks [3]: 1.35 | DE for yellow after 4 weeks [4]: 0.23
